From PMC11109280

Assays:
[1] = tested on: PTBP1 (endogenous) (Locusta migratoria); test: RNA pull-down with immunoblot and MS; conditions: terminal oocyte lysate; protein pull-down: 100 mM KCl, 20 mM Tris-HCl pH 7.6, 0.1% Triton X-100, 0.1% Tween-20, 4 C 2 h; protein in an extract; label: 3' …
[2] = tested on: PTBP1 (recombinant) (Locusta migratoria); test: protein pull-down with qPCR; conditions: 100 mM KCl, 20 mM Tris-HCl pH 7.6, versus empty-vector lysate, protein pull-down: 100 mM KCl, 20 mM Tris-HCl pH 7.6, 0.1% Triton X-100, 0.1% Tween-20, 4 C 2 h
[3] = tested on: FOXN1 (Locusta migratoria); test: competition with a labelled probe; conditions: 400 pmol unlabeled Mut vs 200 fmol labeled WT probe; EMSA: 20 ug nuclear extract, 200 fmol probe, 2.5% glycerol, 5 mM MgCl2, 1 M KCl, 50 ng poly(dI-dC), 0.05% NP-40, room temp 20 min; protein in an extract; label: 5' biotin (direct EMSA), unlabeled (competitor)
[4] = tested on: FOXN1 (Locusta migratoria); test: EMSA (nuclear extract); conditions: labeled Mut probe, no WT probe; EMSA: 20 ug nuclear extract, 200 fmol probe, 2.5% glycerol, 5 mM MgCl2, 1 M KCl, 50 ng poly(dI-dC), 0.05% NP-40, room temp 20 min; protein in an extract; label: 5' biotin (direct EMSA), unlabeled (competitor)
[5] = tested on: PTBP1 (endogenous) (Locusta migratoria); test: RNA pull-down with MS; conditions: terminal oocyte lysate, negative control probe; protein pull-down: 100 mM KCl, 20 mM Tris-HCl pH 7.6, 0.1% Triton X-100, 0.1% Tween-20, 4 C 2 h; protein in an extract; label: 3' biotin

“AGCAGCGAGGUAUAGAGUUCCUACGUGUGUUGUUAUAGUAGGAACUUCAUACCGUGCUCUUG [pre-miR-276 (biotin, 62 nt)]”: binds [1].
“AGCAGCGAGGUAUAGAGUUCCUACGUGUGUUGUUAUAGUAGGAACUUCAUACCGUGCUCUUG [pre-miR-276 (chemically synthesized)]”: binds [2].
“GCTTGATTCCAGAATCACTAACAAC (double strand) [Mut probe]”: no binding [3]; no binding [4].
“UCCGCUCAUUCUGCCGGUUGUUAUGCUAUUAUCAGAUUAAGCAUCACAACCUCCUAGAAAGAGUAGAUC [NC (pre-miR-67, 69 nt)]”: no binding [5].

The exact form of at least one protein or probe is not confirmed. For some assays here: Where cells or extracts were used, other partners may take part. For some assays here: A negative result means that nothing was seen under these conditions. For some assays here: At least one verdict was read from the data and is not stated in words by the source.
